Test results from PMC4332150.
Results are given in words; binding and its absence hold for the method and conditions named. In cells and extracts the contact can be indirect. These calls come from enrichment with a bait or labelling near it, and not all partners need be listed. For part of these data: No binding means not detected with the bait. For part of these data: Sequences can lack the tags named with a protein. Values belong to the binder of their own block, whether it stands above or below them.

Chains of the proteins cited; added tags and fusions are not shown.
UniProt P05412: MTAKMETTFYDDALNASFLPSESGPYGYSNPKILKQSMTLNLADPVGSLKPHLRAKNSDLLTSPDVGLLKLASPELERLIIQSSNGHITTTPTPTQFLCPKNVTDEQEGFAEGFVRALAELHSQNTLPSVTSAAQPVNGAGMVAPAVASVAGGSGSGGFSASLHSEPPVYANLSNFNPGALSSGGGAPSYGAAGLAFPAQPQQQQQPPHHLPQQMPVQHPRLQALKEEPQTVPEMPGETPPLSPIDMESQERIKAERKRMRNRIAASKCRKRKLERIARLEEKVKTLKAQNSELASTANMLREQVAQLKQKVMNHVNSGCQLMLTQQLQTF
UniProt P16220: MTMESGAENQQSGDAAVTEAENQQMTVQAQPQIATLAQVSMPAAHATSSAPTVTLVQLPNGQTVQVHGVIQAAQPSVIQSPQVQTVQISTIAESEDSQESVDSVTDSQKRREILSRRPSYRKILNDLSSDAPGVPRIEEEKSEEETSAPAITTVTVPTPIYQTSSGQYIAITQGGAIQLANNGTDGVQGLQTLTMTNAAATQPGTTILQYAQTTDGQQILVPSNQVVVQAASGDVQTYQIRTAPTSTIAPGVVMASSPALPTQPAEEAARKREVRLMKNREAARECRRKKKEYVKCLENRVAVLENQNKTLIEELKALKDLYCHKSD
UniProt P35453: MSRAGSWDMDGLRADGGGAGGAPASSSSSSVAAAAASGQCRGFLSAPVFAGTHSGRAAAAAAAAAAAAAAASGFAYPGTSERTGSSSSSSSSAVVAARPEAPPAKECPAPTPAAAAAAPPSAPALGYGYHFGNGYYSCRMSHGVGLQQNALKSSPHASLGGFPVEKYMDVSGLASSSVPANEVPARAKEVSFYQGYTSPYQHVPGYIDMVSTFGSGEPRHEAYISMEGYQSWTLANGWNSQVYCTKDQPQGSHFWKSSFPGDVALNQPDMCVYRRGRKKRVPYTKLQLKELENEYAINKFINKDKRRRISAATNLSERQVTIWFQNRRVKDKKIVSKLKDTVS
UniProt Q9UKB1: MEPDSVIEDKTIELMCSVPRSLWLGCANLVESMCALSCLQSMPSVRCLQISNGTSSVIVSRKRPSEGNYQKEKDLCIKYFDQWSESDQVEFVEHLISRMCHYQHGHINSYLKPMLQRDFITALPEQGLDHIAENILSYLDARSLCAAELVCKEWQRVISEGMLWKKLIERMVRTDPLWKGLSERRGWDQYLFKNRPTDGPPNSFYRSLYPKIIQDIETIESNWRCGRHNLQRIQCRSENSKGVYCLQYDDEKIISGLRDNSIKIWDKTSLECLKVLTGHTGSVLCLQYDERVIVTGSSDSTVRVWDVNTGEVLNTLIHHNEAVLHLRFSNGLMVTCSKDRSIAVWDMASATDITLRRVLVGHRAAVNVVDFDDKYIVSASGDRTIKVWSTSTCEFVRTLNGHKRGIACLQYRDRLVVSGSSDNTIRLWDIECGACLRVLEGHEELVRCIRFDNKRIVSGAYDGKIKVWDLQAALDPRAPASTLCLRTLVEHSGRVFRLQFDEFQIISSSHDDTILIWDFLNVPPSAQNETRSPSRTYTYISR

Columns and labels:
[1] = biological target: JUN (endogenous) (human (endogenous in HEK293T)) (UniProt P05412); assay: affinity purification with mass spectrometry; AP/MS with antibodies against endogenous JUN; chromatin fraction
[2] = biological target: T1, ATF3 as bait of the reciprocal TAP/MS (UniProt P18847); assay: affinity purification with mass spectrometry; TAP (streptavidin beads, biotin elution, S-protein beads; NETN buffer) of C-terminally SFB-tagged bait from HEK293T; soluble fraction (supernatant of the NETN lysate); forward and reciprocal purifications
T1 sequence: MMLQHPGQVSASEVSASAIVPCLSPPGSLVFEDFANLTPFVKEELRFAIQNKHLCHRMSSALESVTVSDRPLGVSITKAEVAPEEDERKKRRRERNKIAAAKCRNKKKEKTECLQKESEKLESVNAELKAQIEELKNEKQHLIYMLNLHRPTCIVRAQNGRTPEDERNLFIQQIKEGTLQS

SFB-tagged ATF1 [3] = biological target: T2, SFB-tagged ATF1 (UniProt P18846); assay: as above
T2 sequence: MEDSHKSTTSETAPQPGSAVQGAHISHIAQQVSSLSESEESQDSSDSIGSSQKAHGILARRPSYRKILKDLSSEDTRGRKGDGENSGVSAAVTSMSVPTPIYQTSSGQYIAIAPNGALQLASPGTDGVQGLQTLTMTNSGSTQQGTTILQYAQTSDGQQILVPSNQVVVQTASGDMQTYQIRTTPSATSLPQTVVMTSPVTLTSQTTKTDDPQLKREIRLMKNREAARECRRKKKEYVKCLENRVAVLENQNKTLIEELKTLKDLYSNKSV

SFB-tagged CREB1 (human) [4] = biological target: SFB-tagged CREB1 (human) (UniProt P16220); assay: as above
[5] = biological target: HOXD13 as bait of the reciprocal TAP/MS (UniProt P35453); assay: affinity purification with mass spectrometry; TAP (streptavidin beads, biotin elution, S-protein beads; NETN buffer) of C-terminally SFB-tagged bait from HEK293T; chromatin fraction (pellet after NETN lysis, digested with TurboNuclease); forward and reciprocal purifications; some baits also after drug treatment
[6] = biological target: T1, ATF3 as bait of the reciprocal TAP/MS; assay: as above
SFB-tagged JUN (human) = SFB-tagged JUN (human) (UniProt P05412); assay: as above
SFB-tagged ATF1 [7] = biological target: T2, SFB-tagged ATF1; assay: as above
SFB-tagged CREB1 (human) [8] = biological target: SFB-tagged CREB1 (human) (UniProt P16220); assay: as above
[9] = biological target: JUN (endogenous) (human (endogenous in HEK293T)) (UniProt P05412); assay: affinity purification with mass spectrometry; AP/MS with antibodies against endogenous JUN; soluble fraction
[10] = biological target: βTRCP2/FBXW11 as bait of the reciprocal TAP/MS (UniProt Q9UKB1); assay: affinity purification with mass spectrometry; TAP (streptavidin beads, biotin elution, S-protein beads; NETN buffer) of C-terminally SFB-tagged bait from HEK293T; soluble fraction (supernatant of the NETN lysate); forward and reciprocal purifications
[11] = biological target: βTRCP2/FBXW11 as bait of the reciprocal TAP/MS (UniProt Q9UKB1); assay: affinity purification with mass spectrometry; TAP (streptavidin beads, biotin elution, S-protein beads; NETN buffer) of C-terminally SFB-tagged bait from HEK293T; chromatin fraction (pellet after NETN lysis, digested with TurboNuclease); forward and reciprocal purifications; some baits also after drug treatment

- binding [1]: binds
- binding [5]: binds
- binding [6]: binds
- binding (SFB-tagged JUN (human)): binds
- binding (SFB-tagged ATF1 [7]): binds
- binding (SFB-tagged CREB1 (human) [8]): binds
B1: NFATC1 (endogenous) (protein, UniProt O95644 1-943)
chain: MPSTSFPVPSKFPLGPAAAVFGRGETLGPAPRAGGTMKSAEEEHYGYASSNVSPALPLPTAHSTLPAPCHNLQTSTPGIIPPADHPSGYGAALDGGPAGYFLSSGHTRPDGAPALESPRIEITSCLGLYHNNNQFFHDVEVEDVLPSSKRSPSTATLSLPSLEAYRDPSCLSPASSLSSRSCNSEASSYESNYSYPYASPQTSPWQSPCVSPKTTDPEEGFPRGLGACTLLGSPRHSPSTSPRASVTEESWLGARSSRPASPCNKRKYSLNGRQPPYSPHHSPTPSPHGSPRVSVTDDSWLGNTTQYTSSAIVAAINALTTDSSLDLGDGVPVKSRKTTLEQPPSVALKVEPVGEDLGSPPPPADFAPEDYSSFQHIRKGGFCDQYLAVPQHPYQWAKPKPLSPTSYMSPTLPALDWQLPSHSGPYELRIEVQPKSHHRAHYETEGSRGAVKASAGGHPIVQLHGYLENEPLMLQLFIGTADDRLLRPHAFYQVHRITGKTVSTTSHEAILSNTKVLEIPLLPENSMRAVIDCAGILKLRNSDIELRKGETDIGRKNTRVRLVFRVHVPQPSGRTLSLQVASNPIECSQRSAQELPLVEKQSTDSYPVVGGKKMVLSGHNFLQDSKVIFVEKAPDGHHVWEMEAKTDRDLCKPNSLVVEIPPFRNQRITSPVHVSFYVCNGKRKRSQYQRFTYLPANVPIIKTEPTDDYEPAPTCGPVSQGLSPLPRPYYSQQLAMPPDPSSCLVAGFPPCPQRSTLMPAAPGVSPKLHDLSPAAYTKGVASPGHCHLGLPQPAGEAPAVQDVPRPVATHPGSPGQPPPALLPQQVSAPPSSSCPPGLEHSLCPSSPSPPLPPATQEPTCLQPCSPACPPATGRPQHLPSTVRRDESPTAGPRLLPEVHEDGSPNLAPIPVTVKREPEELDQLYLDDVNEIIRNDLSSTSTHS
- binding [2]: no binding (only in the soluble fraction)
- binding (SFB-tagged ATF1 [3]): no binding (only in the soluble fraction)
- binding (SFB-tagged CREB1 (human) [4]): no binding (only in the soluble fraction)
- binding [9]: no binding (only in the soluble fraction)

- binding [10]: binds
B2: FOXN2 (endogenous) (protein, UniProt P32314 1-431)
chain: MGPVIGMTPDKRAETPGAEKIAGLSQIYKMGSLPEAVDAARPKATLVDSESADDELTNLNWLHESTNLLTNFSLGSEGLPIVSPLYDIEGDDVPSFGPACYQNPEKKSATSKPPYSFSLLIYMAIEHSPNKCLPVKEIYSWILDHFPYFATAPTGWKNSVRHNLSLNKCFQKVERSHGKVNGKGSLWCVDPEYKPNLIQALKKQPFSSASSQNGSLSPHYLSSVIKQNQVRNLKESDIDAAAAMMLLNTSIEQGILECEKPLPLKTALQKKRSYGNAFHHPSAVRLQESDSLATSIDPKEDHNYSASSMAAQRCASRSSVSSLSSVDEVYEFIPKNSHVGSDGSEGFHSEEDTDVDYEDDPLGDSGYASQPCAKISEKGQSGKKMRKQTCQEIDEELKEAAGSLLHLAGIRTCLGSLISTAKTQNQKQRKK
- binding [11]: no binding (only in the chromatin fraction)
